The campaign covered roughly 340,000 compounds. About 170 (0.05%) were called active. This list was built around the results that the source calls inconclusive (neither active nor inactive); the mix of calls is not that of the screen. Calls come from the whole dose curve; as a rule, active = well fitted inhibition curve with a large enough effect in the signal ratio, with a control signal flat (not every such curve was filed as active); inconclusive = small, poorly fitted or top-dose-only effect, or effect the other way, or a change in a side signal; inactive = flat fitted curve, though single readings scatter; the % refers to the signal ratio. A potency beside an inconclusive call is a rough fit, not a confirmed value. Square brackets hold non-standard residues; d marks the D form. Peptide text beside a SMILES is read from it. * marks the point of attachment. Hyp = O=C(O)[CH]1C[CH](O)CN1; Cbz = O=C(OCc1ccccc1)*; OBn = c1ccc(CO*)cc1
assay: qHTS Assay to Find Inhibitors of Chronic Active B-Cell Receptor Signaling; details: ABC-DLBCL IkBa-CBG/CBR reporter, luminescence ratio (green luciferase fused to IkBa over red control in TMD8 lymphoma cells), 4 h; activity change, negative = inhibition: at 46.1 µM (top of the series) unless noted;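 for activity change, negative = inhibition: plate controls were basal doxycycline-induced cells for no effect and cells given 10 µM MG132 for full effect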
Procedure, shortened: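 Compounds up to 46 uM were incubated four hours with TMD8 cells whose green CBG68 luciferase is fused to IkappaBalpha; red CBR luminescence normalised the signal, and concentration-effect curves were fitted to fusion, red and ratio data.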
Potency is the fitted concentration of half-maximal effect.

With `Cc1c(CCO)c(=O)[nH]n1S(=O)(=O)c1ccc(Cl)cc1Cl` as the molecule, how does the activity change, negative = inhibition read?
Its activity change, negative = inhibition is inconclusive: -0.812%.

Which Potency does the source give for `O=C(Nc1ccc2c(c1)OCCO2)c1ccccc1F` here?
The Potency was inconclusive: 22.4 µM [falling, single point].

Which activity change, negative = inhibition does the source give for `O=C(COC(=O)CN1C(=O)c2ccccc2C1=O)NC1CCCCC1` here?
Its activity change, negative = inhibition is inconclusive: -0.426%.

For `COc1ccc2oc(C(=O)NCCN3CCOCC3)c(C)c2c1OC`, which Potency is on record?
Its Potency is inconclusive: 28.2 µM [falling, single point].

Which activity change, negative = inhibition does the source give for `CC1(C)CC(=O)C(CC(=O)NC(=O)NCc2ccccc2)=C(O)C1` here?
Its activity change, negative = inhibition is inconclusive: 11.3%.

Which activity change, negative = inhibition does the source give for `O=C(NCC(=O)N1CC(O)CC1C(=O)N1CC(O)CC1C(=O)OCc1ccccc1)OCc1ccccc1` (stereo not drawn) (Cbz-Gly-[Hyp]-[Hyp]-OBn; configuration not given here) here?
Its activity change, negative = inhibition is inconclusive: -0.127%.

With `Cc1ccc(C)c(Cn2c(O)c(N=NC(=S)Nc3ccccc3F)c3ccccc32)c1` as the molecule, how does the Potency read?
Its Potency is inconclusive: 35.5 µM [falling, single point].

For `CCOCCCNC(=O)CN1C(=O)/C(=C/c2ccccc2C)Sc2ccccc21`, which Potency is on record?
The Potency was inconclusive: 35.5 µM [falling, single point].

With `CCOc1cc(C(=O)NC(CC(=O)O)c2ccc(OC3CCCC3)cc2)cc(OCC)c1OCC` (stereo not given) as the molecule, how does the activity change, negative = inhibition read?
The activity change, negative = inhibition was inconclusive: 3.19%.

Which activity change, negative = inhibition does the source give for `COc1ccc(Nc2oc(-c3ccc(F)cc3)nc2C#N)cc1` here?
The activity change, negative = inhibition was inconclusive: 15.9%.

With `CC(C)(C)OC(=O)NNC(=O)Nc1ccccc1C(F)(F)F` as the molecule, how does the activity change, negative = inhibition read?
The activity change, negative = inhibition was inconclusive: 1.6%.

For `Cc1cc(=O)oc2cc(OCCc3ccccc3)ccc12`, which activity change, negative = inhibition is on record?
Its activity change, negative = inhibition is inconclusive: 1.69%.

Which activity change, negative = inhibition does the source give for `Cc1ccc(CN2CCN(/N=C/c3cc([N+](=O)[O-])ccc3Cl)CC2)cc1` here?
Its activity change, negative = inhibition is inconclusive: -17.2%.

With `Cc1nc(SC(C)C(=O)NC2CCCC2)c2ccccc2n1` (stereo not given) as the molecule, how does the activity change, negative = inhibition read?
The activity change, negative = inhibition was inconclusive: -11.2%.

Which activity change, negative = inhibition does the source give for `COc1ccc(CN(C(=O)c2ccc3c(c2)OCCO3)C(C(=O)NC2CCCCC2)c2ccc3ncccc3c2)cc1` (stereo not given) here?
The activity change, negative = inhibition was “inactive”.

For `CC(C)[C@H](NC(=O)N1CCn2c1nc1ccccc12)C(=O)NCc1ccc2c(c1)OCO2`, which activity change, negative = inhibition is on record?
Its activity change, negative = inhibition is inconclusive: 10.3%.

Which activity change, negative = inhibition does the source give for `CC(=O)c1c(C)[nH]c(C(=O)CSc2ccc(F)cc2)c1C` here?
Its activity change, negative = inhibition is inconclusive: 4.14%.

With `CCc1ccc(C(=O)COC(=O)CNC(=O)Cc2ccccc2)cc1` as the molecule, how does the activity change, negative = inhibition read?
Its activity change, negative = inhibition is “inactive”.

With `CCOC(=O)C1CCCN(C(=S)Nc2ccc(F)cc2)C1` (stereo not given) as the molecule, how does the activity change, negative = inhibition read?
Its activity change, negative = inhibition is “inactive”.

With `O=C(NNC(=S)Nc1ccccc1)c1cc(-c2cccnc2)nc2ccccc12` as the molecule, how does the activity change, negative = inhibition read?
Its activity change, negative = inhibition is “inactive”.

With `O=C(Nc1nccs1)c1sc2ccccc2c1Cl` as the molecule, how does the Potency read?
The Potency was inconclusive: 18.4 µM [falling, single point].

With `COc1ccc(C(c2sc3nc(C)nn3c2O)N2CCN(Cc3ccccc3)CC2)cc1OC` (stereo not given) as the molecule, how does the activity change, negative = inhibition read?
Its activity change, negative = inhibition is inconclusive: -21.6%.

Which Potency does the source give for `COc1ccc(NS(=O)(=O)c2cccc(C(=O)NNC(=O)c3ccccc3O)c2)cc1` here?
The Potency was inconclusive: 29.1 µM [falling, single point].

For `CC(=O)Nc1ccc(S(=O)(=O)N(C)CC(=O)Nc2nc3ccccc3[nH]2)cc1`, which activity change, negative = inhibition is on record?
Its activity change, negative = inhibition is inconclusive: -1.6%.

For `CCc1noc(C)c1C(=O)OC(C)C(=O)Nc1cc([N+](=O)[O-])ccc1OC` (stereo not given), which activity change, negative = inhibition is on record?
Its activity change, negative = inhibition is “inactive”.

With `COCCNC(=S)N/N=C(\C)c1ccc(OC)cc1` as the molecule, how does the Potency read?
The Potency was inconclusive: 29.1 µM [cytotoxic, single point].

Which activity change, negative = inhibition does the source give for `CCc1cc(C(=O)NNC(=S)NC(C)c2ccccc2)cs1` (stereo not given) here?
The activity change, negative = inhibition was inconclusive: -10.8%.

For `COc1cc2c(cc1NC(=O)Nc1ccccc1)oc1ccccc12`, which activity change, negative = inhibition is on record?
The activity change, negative = inhibition was inconclusive: 18.1%.

For `N#CCc1nc(C(c2ccccc2)c2ccccc2)no1`, which activity change, negative = inhibition is on record?
Its activity change, negative = inhibition is inconclusive: -6.77%.

Which activity change, negative = inhibition does the source give for `CC(c1n[nH]c(=S)n1-c1ccccc1)N1CCCCC1` (stereo not given) here?
Its activity change, negative = inhibition is inconclusive: 8.92%.

Which Potency does the source give for `COc1cccc(OC)c1C(=O)Nc1cccc(C(=O)Nc2cccc(C(=O)O)c2)c1` here?
The Potency was inconclusive: 31.6 µM [falling, single point].

Which activity change, negative = inhibition does the source give for `CCN1C(=O)c2cccc3c(S(=O)(=O)Nc4ccccc4OC)ccc1c23` here?
Its activity change, negative = inhibition is inconclusive: 15.6%.

For `S=C(NCc1ccco1)Nc1cc(Cl)c(Cl)cc1Cl`, which activity change, negative = inhibition is on record?
The activity change, negative = inhibition was inconclusive: 19.8%.

With `Cc1ccc(-c2csc3nc(C)n(-n4c(C)ccc4C)c(=O)c23)o1` as the molecule, how does the activity change, negative = inhibition read?
The activity change, negative = inhibition was inconclusive: 8.3%.

Which activity change, negative = inhibition does the source give for `Cc1cc(-c2nnc(SCC(=O)Nc3nc(-c4ccccc4)cs3)o2)no1` here?
The activity change, negative = inhibition was inconclusive: -0.207%.

For `COc1cc(C(=O)NCC(=O)N/N=C\C(C)=C/c2ccccc2)cc(OC)c1OC`, which activity change, negative = inhibition is on record?
The activity change, negative = inhibition was inconclusive: -0.0841%.

Which activity change, negative = inhibition does the source give for `CCOC(=O)c1nc(C)n(-c2cc(OC)c(Cl)cc2Cl)n1` here?
The activity change, negative = inhibition was “inactive”.

Which Potency does the source give for `CC1(C)CC(=O)C=C(NNC(=O)c2cccnc2)C1` here?
The Potency was inconclusive: 25.1 µM [falling, single point].

Which Potency does the source give for `CCc1nc(SCc2cccnc2)c(C#N)cc1C` here?
Its Potency is inconclusive: 29.1 µM [falling, single point].

With `CC(NCC(O)COc1ccc(S(=O)(=O)N2CCOCC2)cc1)c1ccccc1` (stereo not given) as the molecule, how does the activity change, negative = inhibition read?
Its activity change, negative = inhibition is inconclusive: -10.6%.
